Results from PubChem BioAssay AID1347426 (Functional Genomics Laboratory (NCATS/FGL), 2020).
The campaign covered roughly 31,000 sequences. About 1,400 (4.5%) were called active.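 How the source made its calls: active means median seed-adjusted z-score above 1 or below -1; inactive means the rest.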 Some of the results follow.

assay: Novel Modifiers of Survival Motor Neuron (SMN) Protein: Gene Identification via Genome-wide siRNA Screen; conditions: HEK293T SMN2-luciferase reporter, siRNA knockdown, 72 h; actives lie on both sides;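 further: luminescence tracks full-length SMN protein made from the SMN2 reporter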
Procedure, shortened: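 Genome-wide siRNA screen (10418 genes, 3 siRNAs each, 1 pmol per well) by reverse transfection in HEK293T cells stably carrying an SMN2-luciferase reporter; luminescence after 72 hours, normalized to negative-control siRNA, log10-transformed, MAD-scored.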

Sequence | median seed-adjusted z-score
GCAAGAUCCUCAAUGCGCATT against NUP62 | inactive: 0
UGACAUCGUUGGUCCGGAUTT against FBL | inactive: -0.0592
CAGUCCCAAUUUCCACUUUTT against PCDHB2 | inactive: 0
ACAUCUGCAUUGGACAACUTT against ZDHHC24 | inactive: -0.695
GGAAGGGCUUGGUGAUCUATT against EFNB1 | inactive: -0.448
GGCAAGCACUUCUUUCUUUTT against XRCC1 | inactive: 0.0431
GAUUGGAACUUGGUAUUCATT against GALNT2 | inactive: 0.0798
CCACCUCACUUGAAGCUUUTT against VRK3 | inactive: -0.526
CCCUAUGAGUGUCAACAAUTT against ZNF799 | active: -1.02
GGAAUUAUCCCUCAAAGCATT against METT10D | inactive: 0.455
CCUGAGCUAUAAUGAGCUATT against PARP12 | inactive: -0.287
GCAUUAACCCAAUUGCUCUTT against EDNRB | inactive: 0.119
GUACGAGGGUCUCAGAAUATT against BICC1 | inactive: -0.352
GAUUAGAUGUGACUGUACATT against FAM98B | inactive: -0.0162
GGUCCUACCUCGAGCAUAATT against TTLL5 | inactive: 0
GGCACUUAAGGUUCGCUAUTT against PPP4C | active: 1.15
GCAGUAGACUGAGCAGCAATT against TMTC4 | active: -1.16
GGUUGUUGCUAAAGACAUATT against HSDL1 | inactive: 0.0547
CAUCCAGCCCUUAUACAAATT against RBM24 | inactive: 0.0471
AGAGCAACGUGAAAGUGCATT against FOXRED1 | inactive: 0.447
CACUUCAUAUCUCCUAAUATT against PSMB7 | inactive: 0.131
GGACGGAUCUGCUCAGAAATT against LSM4 | inactive: -0.679
CUUCAGUACCUUAUCAUUATT against ST6GALNAC5 | inactive: -0.0321

Sequence | median seed-adjusted z-score
UCACUGUGCUGAUCGGGAATT against TAZ | inactive: 0.0549
CAACCGCACUCGGUAUGAATT against PROCR | inactive: -0.476
GGGCAGACCUCAACACCAATT against TEAD4 | inactive: 0.0908
GGAACAUCUUUGUACCUAUTT against NARG1 | active: -1.02
UCCAAGUCCUGGACUAUGATT against SYT7 | inactive: -0.762
CAAAGUAUCUGGAGAACCATT against KIF2C | inactive: 0.0122
GCAGAAAACGGUGUAUAAATT against USP2 | inactive: -0.0321
CCAUAGCCGUCUACUCUUUTT against BEST4 | inactive: -0.207
ACAUACUCCCUGAAGCUGATT against GBP1 | inactive: -0.232
GCUCCUUAGCUGCUGAUAATT against HSD17B4 | inactive: 0
GAUCCAAGCUAAUAUGAGATT against TGM5 | inactive: 0.0181
GUGUCCGAGUGGUGAAUCATT against NVL | inactive: 0.701
GCACCACCCGUUGAAGUCATT against DNAJB13 | inactive: 0.092
GCUCCAACCUUAUUACCCATT against ZNF629 | inactive: 0.0602
GGGACUUCAUGUUCGAGCATT against DNAI2 | inactive: 0.12
GGAAUUCCGUUACGGCCUATT against ADIPOR1 | inactive: 0
UGUUUUCCGUGAUGAGUGATT against CIB3 | inactive: 0.234
GCAGAUGCCUUCUUCGUUATT against ABCG2 | inactive: 0
GGAAGAAGGUAUUCCGUAUTT against CHD5 | inactive: -0.195
CUUCGACAGUACUUCCGGATT against PPP2R1A | inactive: 0.973
CGAAUUUCCUAGUAAACCATT against TFAP2C | active: 1.28
CGAUGUUGAAGUUACACCATT against ATP13A4 | active: -1.09
GGAAACGAUUUAUCUAGAATT against ITGB8 | inactive: -0.0936

Reprinted at random: 6 records from the list, in no set order.
Sequence | median seed-adjusted z-score
CAGUCCCAAUUUCCACUUUTT against PCDHB2 | inactive: 0
CAACCGCACUCGGUAUGAATT against PROCR | inactive: -0.476
GGAAACGAUUUAUCUAGAATT against ITGB8 | inactive: -0.0936
GGAACAUCUUUGUACCUAUTT against NARG1 | active: -1.02
GGACGGAUCUGCUCAGAAATT against LSM4 | inactive: -0.679
GGAAUUAUCCCUCAAAGCATT against METT10D | inactive: 0.455

Continued.

Sequence | median seed-adjusted z-score
GUAAUCGAGAUGUUACAAATT against PIK3CG | inactive: 0.576
GCUGGUACGUGACAAUGCATT against KIF5A | inactive: -0.348
GGACCGCUACUCUGAGUAUTT against KCNH6 | inactive: 0.424
CCCUCGCUAUGACAGGAAATT against CNGB1 | inactive: -0.627
GAAGAUGCCUUGAUUGAAATT against ANXA3 | inactive: -0.156
CCUUUCUACUUAUUGAGUUTT against MFSD5 | inactive: 0.205
GGAUAGAGGAAAAUGGAUATT against FGF10 | inactive: 0
CCAGCACUGUUUACCUUUUTT against GPR81 | inactive: 0.0718
GCAUAAUUAUGUUCAUCAUTT against SLC13A2 | inactive: 0.172
CAUACAUCCUCAACUACUATT against CYP51A1 | inactive: -0.242
GGUUAGACCAAUUACACUATT against POGZ | inactive: -0.376
GGACAUGUGCGUCUACCGATT against HOXD13 | inactive: 0.116
CUUAGAAGAUUUUACGUUUTT against SCN3A | inactive: -0.0556
GAUUUCGGAUUAUCUAAUATT against PRKAA2 | inactive: -0.194
CAGUUACAAGUUAUCAAAATT against SGTB | inactive: -0.0165
CCUGGACCUCGUUCCCAAATT against ADPRHL1 | inactive: 0
GCUCAUUAUUGGGAUCAUUTT against SLC7A3 | inactive: -0.537
GAUGAUACCUGCGACAGUATT against MRC1 | inactive: 0.179
GCUGGAGACUGACACUUUATT against HHAT | inactive: 0.585
CUAUUUCCCUAGAUUCUAUTT against HBD | inactive: 0
GACCUGAUGUGGAAGCAGATT against QDPR | inactive: -0.734
CCGUAUGAAUGUAAGUAUUTT against ZNF441 | inactive: 0.578
GAAUAGAUAUGUUGGAUAUTT against TPTE2 | inactive: -0.0675
